Results from the supplement of paper PMC11546906.
Where a name gives a salt, the structure may show the parent alone. This is one part of the list. This data set is noisy: repeats of one test often differ as much as different tests do.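 Screen of FDA-approved drugs, each combined with colistin at one-eighth of its MIC, against a multidrug-resistant mcr-1-positive clinical E. coli isolate; growth read as OD600 after 24 h. Bacteria without drug were the growth control and plain broth the blank. A combination counted as active when OD600 fell below 0.2.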

System: Escherichia coli 42 (mcr-1-positive clinical isolate)
Assay: OD600 after 24 h growth with compound plus colistin (absorbance units (OD600)); higher = more bacterial growth (less inhibition)
Conditions: first compound 25 µM; colistin concentration 0.5 ug/mL; incubation time 24 h; 37 °C

Row | Structure (SMILES) | OD600
1 | CC(C)NCC(O)c1ccc(NS(C)(=O)=O)cc1 (centres undefined) [Sotalol hydrochloride] + CCC(C)CCCC(=O)N[C@@H](CCN)C(=O)N[C@H](C(=O)N[C@@H](CCN)C(=O)N[C@H]1CCNC(=O)[C@H]([C@@H](C)O)NC(=O)[C@H](CCN)NC(=O)[C@H](CCN)NC(=O)[C@H](CC(C)C)NC(=O)[C@@H](CC(C)C)NC(=O)[C@H](CCN)NC1=O)[C@@H](C)O [colistin] | inactive: 1.09
2 | CC1(C)S[C@@H]2[C@H](NC(=O)[C@H](C(=O)O)c3ccsc3)C(=O)N2[C@H]1C(=O)O [Ticarcillin disodium] + CCC(C)CCCC(=O)N[C@@H](CCN)C(=O)N[C@H](C(=O)N[C@@H](CCN)C(=O)N[C@H]1CCNC(=O)[C@H]([C@@H](C)O)NC(=O)[C@H](CCN)NC(=O)[C@H](CCN)NC(=O)[C@H](CC(C)C)NC(=O)[C@@H](CC(C)C)NC(=O)[C@H](CCN)NC1=O)[C@@H](C)O [colistin] | inactive: 0.756
3 | NS(=O)(=O)Cc1noc2ccccc12 [Zonisamide] + CCC(C)CCCC(=O)N[C@@H](CCN)C(=O)N[C@H](C(=O)N[C@@H](CCN)C(=O)N[C@H]1CCNC(=O)[C@H]([C@@H](C)O)NC(=O)[C@H](CCN)NC(=O)[C@H](CCN)NC(=O)[C@H](CC(C)C)NC(=O)[C@@H](CC(C)C)NC(=O)[C@H](CCN)NC1=O)[C@@H](C)O [colistin] | inactive: 1.15
4 | NC(=O)c1cccnc1 [Nicotinamide] + CCC(C)CCCC(=O)N[C@@H](CCN)C(=O)N[C@H](C(=O)N[C@@H](CCN)C(=O)N[C@H]1CCNC(=O)[C@H]([C@@H](C)O)NC(=O)[C@H](CCN)NC(=O)[C@H](CCN)NC(=O)[C@H](CC(C)C)NC(=O)[C@@H](CC(C)C)NC(=O)[C@H](CCN)NC1=O)[C@@H](C)O [colistin] | inactive: 0.918
